Results of single-concentration screens

Measurements from “University of Dundee, Small-Polar-MMV Screening Library” (2021), ChEMBL document CHEMBL3988442.

T. brucei: 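Whole-parasite assay of Trypanosoma brucei over 72 hours; the read-out is not stated. Tested at 30 µM. Direction is inferred from retests: higher values go with stronger inhibition. Values scatter widely below zero; nearly all retest evidence comes from the higher of the two concentrations used. Of about 64,000 compounds tested this way, about 940 (1.5%) reached 50% or more in at least one test.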
Toxoplasma: 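Assay of Toxoplasma gondii numbers, read through their beta-galactosidase reporter with a colour substrate. Tested at 10 µM. The record gives no direction; the compounds picked for IC50 retests had high values, so higher reads as fewer parasites. Size under these conditions: about 67,000 compounds, about 260 of them at 50% or above in at least one test.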

The filed quantity is “Percent Effect” (%). How 0% and 100% were set is not recorded. Most values in the screen are low, and negative values occur. This is an unselected part of the compounds tested. A dash means the value is not listed here; it may have been measured.

compound	T. brucei	Toxoplasma
N#CCCCS(=O)(=O)NC1(c2cccc(Cl)c2)CC1	-7.94%	-
CCn1ccnc1CN1CCCN(CC2CC2)C(C(C)C)C1 (centres undefined)	-3.716%	0.6112%
NC(=O)C(NCc1ccc(Cl)s1)c1ccccc1 (centres undefined)	-24.58%	3.386%
COc1cccc(C(=O)Nc2ccc(OCCC(N)=O)cc2)c1OC	15.07%	-5.98%
[H][C@@]12CCN(Cc3nc(C)cs3)C[C@]1([H])OCCN(c1cccnc1)C2=O	-	-11.13%
CC(CCNC(=O)N1CCC1)N(C)C(=O)OC(C)(C)C (centres undefined)	-48.33%	-1.538%
C1CCC(NCCN2CCOCC2)C1	-15.7%	-6.843%
CN1CC(C(=O)NCc2cccnc2-n2cccn2)CC1=O (centres undefined)	-	18.33%
CCCn1nc(C)c(CNC(=O)C2COc3ccc(OC)cc3C2)c1C (centres undefined)	-106.7%	-4.932%
O=C(O)C(F)(F)F.[H][C@@]12CCN(Cc3ccc(OC)cc3)[C@@]1([H])CC(=O)N2CCOC	-19.5%	-0.9429%
O=C(NCCCN1CCOCC1)c1ccnc(OCc2ccccc2)c1	-1.905%	7.606%
CCSCCC(=O)Nc1ncn(Cc2cccnc2)n1	-6.332%	-6.388%
Cc1cc(C(=O)N2CCC3(CC2)C(=O)NCCN3CC(C)C)c(C)o1	-6.246%	5.011%
[H][C@@]12COC[C@H](C(=O)N3CCCO3)[C@]1([H])CN(Cc1ccco1)C2	35.59%	-0.641%
O=C(NC1CCN(CC2CC2)C1)N1CCC(OC2CCCCC2)CC1 (centres undefined)	11.34%	3.048%
CCOc1c(Br)cc(C2C3=C(COC3=O)Nc3[nH]nc(C)c32)cc1OC (centres undefined)	33.99%	35.27%
[H][C@]12CC[C@]([H])(CN(S(=O)(=O)N(C)C)C1)N(C/C=C/c1ccc(OC)cc1)C2	-6.625%	-3.702%
COCCN1CCC(Cc2cnc(-c3ccccc3C(=O)O)cn2)CC1	-27.44%	22.65%
Cc1ccc(C(=O)N2CCC(=O)N(CC3CC3)C(C(C)C)C2)c(=O)[nH]1 (centres undefined)	-65.77%	-7.649%
COCCN1CCC(CNC(=O)C2(c3cccc(Cl)c3)CC2)C1 (centres undefined)	10.42%	-8.162%
CCn1cnnc1CNC(=O)N1CCN(c2cccc(OC)c2)CC1	5.841%	0.3176%
Cc1nc(C)c(C)c(N2CCC3(CCN(C)C3)C2)n1 (centres undefined)	-61.69%	-2.704%
CCN(CC)Cc1ccc(C(=O)NC2CCc3cc(F)ccc32)o1 (centres undefined)	-109.2%	5.192%
CCOc1cccc(CCNC(=O)NC2CCc3[nH]ncc3C2)n1 (centres undefined)	-32.97%	1.358%
COCC(=O)NC1CCN(c2cccc(OC(F)(F)F)c2)C1=O (centres undefined)	-61.69%	3.256%
Cc1ccsc1C(=O)N1Cc2ncn(C)c2C(COCC2CC2)C1.O=C(O)C(F)(F)F (centres undefined)	-16.52%	-10.72%
c1cnc(-c2nn3c(CN4CCOCC4)nnc3s2)cn1	-26.33%	68.89%
CC(Cc1ccsc1)NC(=O)c1cc(N2CCNC2=O)ccc1F (centres undefined)	10.79%	-16.52%
O=C(O)C(F)(F)F.[H][C@]12CCN(CC3CC3)C[C@@]1([H])OCCN(C(=O)c1ccco1)C2	-224.1%	6.067%
Fc1cccc(-n2nc(C3CC3)nc2CCn2cnnn2)c1	-31.8%	3.569%
O=C(CCc1cc(O)no1)N1CCCC(COc2ccc(F)cc2)C1 (centres undefined)	-5.195%	7.735%
COC(=O)Cc1cccc(NC(=O)Cc2cc(C)[nH]n2)c1	-48.61%	-1.298%
CCc1ncc2c(n1)CN(C(=O)c1c(C)[nH]c3c1C(=O)CCC3)C2	-	-4.423%
COc1ccc(C(=O)N(CCC#N)Cc2ccccn2)cc1	24.21%	0.3488%
CCn1cc(C(=O)N2CCCC(c3nccs3)C2)cn1 (centres undefined)	-14.55%	-20.6%
CN(C)[C@H]1CN(C(=O)CCc2cccc(F)c2)C[C@@H]1C1CC1	0.5961%	-2.732%
[H][C@]12CC[C@]([H])(CN(Cc3cccnc3)C1)N(C(=O)CSc1ccncc1)C2	-70.06%	0.2189%
COCCNC(=O)c1cnc(N(C)C)nc1C	-0.07995%	9.973%
COC(=O)CC1CCCCN1CC(=O)Nc1ccc(F)cc1Cl (centres undefined)	-40.19%	20.88%
Cc1ccccc1CN1CCCN(CCN2CCOC2=O)CC1	-12.84%	7.956%
NC(=O)C1CCN(c2ccc(C(=O)N3CCc4ccccc43)cn2)C1 (centres undefined)	-105.4%	21.16%
[H][C@]12CC[C@@]3(N=C(c4ccccc4)NC3=O)[C@@]1([H])CN(Cc1ccncc1)C2	4.127%	1.601%
COCCCN(C)C1CCCN(Cc2noc(C)n2)C1 (centres undefined)	21.2%	8.616%
COc1ccc(-c2cccc3c2OC(CN)C3)cc1F (centres undefined)	-50.18%	-16.32%
Cc1nc(C)c(CNC(=O)N2CCc3ccccc3C2CO)s1 (centres undefined)	5.291%	1.25%
COc1ccc(CCCN(C)C(=O)c2cc(C(C)=O)c[nH]2)cc1OC	-22.91%	3.442%
Cc1nc(CN(C)c2cc(N3CCCC3CO)ncn2)cs1 (centres undefined)	-10.1%	0.4284%
Cc1csc(C2(NCc3nc(-c4ccco4)oc3C)CCCC2)n1	7.11%	-4.682%
Cc1cnn(CC2CN(Cc3nc(-c4cccnc4)no3)CCO2)c1 (centres undefined)	-22.53%	23.26%
Cc1cccc(NC(=O)C(C)Nc2cccc(CN3CCOC3=O)c2)c1 (centres undefined)	0.8551%	-8.294%
O=C(O)C(c1ccc2c(c1)OCCO2)N1CCC(N2CCOCC2)CC1 (centres undefined)	14.95%	8.108%
[H][C@@]12C[C@H](C(=O)NCC(C)C)[C@@]([H])(CN(S(=O)(=O)c3cccc(C)c3)C1)O2	-51.59%	-5.053%
CCNC(=O)[C@@H]1C[C@@H](NC(=O)c2cc(C)on2)CN1Cc1ccccn1	-28.65%	22.32%
Fc1cccc(NCc2ncc[nH]2)c1	-7.329%	17%
O=C(NCc1ccccc1CN1CCOCC1)Nc1nncs1	-16.51%	1.123%
CC(c1cccnc1)N(C)Cc1cc2cc3c(cc2[nH]c1=O)OCO3 (centres undefined)	30.23%	-0.1821%
Cc1ccc([C@@H]2CN(C(=O)c3ccccc3C)C[C@H]2N(C)C)cc1	11.63%	-3.149%
CN(Cc1ccncn1)C(=O)CCc1[nH]nc2c1CCCC2	-14.67%	-10.43%
CC(C)(C)NC(=O)C1(Cc2ccccc2-c2ccncc2)CCOCC1	-4.302%	-11.93%
CC(C)N1CCC2(CC1)C[C@@H](O)[C@H](c1ccccc1)NC2=O	4.609%	0.2353%
[H][C@]12CCN(C(=O)NCc3cccc(F)c3)C[C@@]1([H])OCCN(C)C2	-60.99%	-12.93%
Cc1ccc(S(=O)(=O)NC(=O)C2(c3ccccc3)CCC2)c(C)c1	-43.74%	11.16%
COc1ccc2cc(C3CN(C(=O)C4CCOCC4)CCO3)ccc2c1 (centres undefined)	-0.6278%	-3.231%
c1ccc(CCCN2CCCN(c3ncnc4[nH]ccc34)CC2)cc1	8.086%	-2.314%
O=C(O)C(F)(F)F.[H][C@@]12CCN(c3nncs3)[C@@]1([H])CCN2C(=O)N(C)C	-64.08%	-5.448%
CN(C)C(=O)N1CCC(C2C(=O)Nc3ccccc32)CC1 (centres undefined)	-3.537%	-41.16%
CCc1noc(C2CCCCN2C(=O)c2sccc2C)n1 (centres undefined)	-9.122%	13%
Cc1nc2ccnn2c(C)c1CCC(=O)N1CCN(C2CC2)CC1	-34.72%	-4.08%
[H][C@@]12CCN(S(=O)(=O)CC)[C@]1([H])CC[C@@H](c1nc(C)no1)O2	-1.063%	-12.18%
CC(C)CC1SCC(=O)Nc2c1cnn2C(C)C (centres undefined)	38.7%	-1.674%
Cc1nc(C(=O)N(C)CC2CC2)nn1-c1ccccc1C(C)C	-46.74%	2.923%

For reference, 6 entries once more:

{"compound": "Cc1cccc(NC(=O)C(C)Nc2cccc(CN3CCOC3=O)c2)c1", "stereo": "centres undefined", "T. brucei": 0.8551, "Toxoplasma": -8.294}
{"compound": "CC(c1cccnc1)N(C)Cc1cc2cc3c(cc2[nH]c1=O)OCO3", "stereo": "centres undefined", "T. brucei": 30.23, "Toxoplasma": -0.1821}
{"compound": "Cc1ccccc1CN1CCCN(CCN2CCOC2=O)CC1", "T. brucei": -12.84, "Toxoplasma": 7.956}
{"compound": "NC(=O)C1CCN(c2ccc(C(=O)N3CCc4ccccc43)cn2)C1", "stereo": "centres undefined", "T. brucei": -105.4, "Toxoplasma": 21.16}
{"compound": "CC(C)N1CCC2(CC1)C[C@@H](O)[C@H](c1ccccc1)NC2=O", "T. brucei": 4.609, "Toxoplasma": 0.2353}
{"compound": "COc1ccc(CCCN(C)C(=O)c2cc(C(C)=O)c[nH]2)cc1OC", "T. brucei": -22.91, "Toxoplasma": 3.442}